Measurements from doi:10.1101/2022.02.23.481653.
These are yes or no findings as the source states them, for the method shown. For some assays here: In cells and extracts the contact can be indirect. Some entries that bind do so weakly or less than the wild type. Tags and fused reporters may be left off the sequences shown.

Columns and labels:
[1] = molecular target: T1, SEPT9_i1-β10 and SEPT9_i1-β11 (wild-type SEPT9 isoform 1 fused to GFP strand β10 or β11) (human), Q9UHD8; assay: split reporter; conditions: remark: other sources report otherwise
T1 chain: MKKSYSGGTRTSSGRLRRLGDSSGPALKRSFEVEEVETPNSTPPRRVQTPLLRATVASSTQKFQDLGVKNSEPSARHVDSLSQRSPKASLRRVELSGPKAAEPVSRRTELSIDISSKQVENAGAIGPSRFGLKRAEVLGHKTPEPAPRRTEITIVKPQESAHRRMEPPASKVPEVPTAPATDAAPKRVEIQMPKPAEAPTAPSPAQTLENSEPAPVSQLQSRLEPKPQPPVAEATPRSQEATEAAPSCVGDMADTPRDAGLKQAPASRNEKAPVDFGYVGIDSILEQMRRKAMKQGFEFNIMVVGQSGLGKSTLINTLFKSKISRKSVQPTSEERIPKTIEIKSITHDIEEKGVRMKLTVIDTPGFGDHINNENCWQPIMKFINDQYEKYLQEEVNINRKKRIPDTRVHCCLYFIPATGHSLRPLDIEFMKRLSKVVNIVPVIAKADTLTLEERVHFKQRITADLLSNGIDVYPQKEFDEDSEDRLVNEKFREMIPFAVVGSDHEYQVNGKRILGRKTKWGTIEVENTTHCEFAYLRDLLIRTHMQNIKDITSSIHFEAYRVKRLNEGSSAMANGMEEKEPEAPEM

[2] = molecular target: T2, recombinant human septin hexamers with SEPT2NCmut-msfGFP (SEPT2 F20D, V27D) (human), Q15019; assay: fluorescence microscopy of reconstituted septin filaments; conditions: remark: other sources report otherwise
T2 chain 1: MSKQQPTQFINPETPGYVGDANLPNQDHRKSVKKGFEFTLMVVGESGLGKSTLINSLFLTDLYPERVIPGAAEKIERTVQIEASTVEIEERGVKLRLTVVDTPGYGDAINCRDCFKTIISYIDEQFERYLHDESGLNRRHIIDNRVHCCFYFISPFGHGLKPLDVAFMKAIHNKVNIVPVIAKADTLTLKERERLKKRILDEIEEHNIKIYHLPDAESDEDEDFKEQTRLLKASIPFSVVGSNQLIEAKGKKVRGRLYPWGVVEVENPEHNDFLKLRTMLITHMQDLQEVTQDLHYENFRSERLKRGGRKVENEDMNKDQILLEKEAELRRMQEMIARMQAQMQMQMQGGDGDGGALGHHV
T2 chain 2: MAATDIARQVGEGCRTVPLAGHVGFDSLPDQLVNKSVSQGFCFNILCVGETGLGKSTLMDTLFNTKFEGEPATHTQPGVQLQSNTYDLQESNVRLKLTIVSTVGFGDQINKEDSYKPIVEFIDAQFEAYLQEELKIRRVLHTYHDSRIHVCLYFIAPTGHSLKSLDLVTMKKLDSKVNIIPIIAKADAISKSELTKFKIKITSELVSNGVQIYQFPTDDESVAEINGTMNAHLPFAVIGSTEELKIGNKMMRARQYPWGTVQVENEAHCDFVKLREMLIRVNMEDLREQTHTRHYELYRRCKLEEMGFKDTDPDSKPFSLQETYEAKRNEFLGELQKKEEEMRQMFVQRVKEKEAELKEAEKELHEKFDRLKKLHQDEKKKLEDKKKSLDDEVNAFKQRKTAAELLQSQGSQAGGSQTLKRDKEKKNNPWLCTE
T2 chain 3: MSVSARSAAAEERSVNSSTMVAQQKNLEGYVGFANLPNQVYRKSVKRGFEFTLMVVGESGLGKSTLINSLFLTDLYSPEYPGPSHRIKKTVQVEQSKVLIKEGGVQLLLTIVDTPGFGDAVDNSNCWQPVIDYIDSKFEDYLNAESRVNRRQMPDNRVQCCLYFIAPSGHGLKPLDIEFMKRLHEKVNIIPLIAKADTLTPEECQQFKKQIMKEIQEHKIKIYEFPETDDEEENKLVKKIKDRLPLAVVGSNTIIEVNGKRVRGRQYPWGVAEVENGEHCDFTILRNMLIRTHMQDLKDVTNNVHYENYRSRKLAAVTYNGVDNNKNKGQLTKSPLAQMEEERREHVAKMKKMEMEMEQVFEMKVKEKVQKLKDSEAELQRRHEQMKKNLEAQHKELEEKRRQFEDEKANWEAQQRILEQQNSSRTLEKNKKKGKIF

B1: SEPT9_i1-β10 and SEPT9_i1-β11 (wild-type SEPT9 isoform 1 fused to GFP strand β10 or β11), Q9UHD8-1 1-586 (protein)
chain: T1 chain
[1]
  binding: binds

B2: recombinant human septin hexamers with SEPT2NCmut-msfGFP (SEPT2 F20D, V27D), Q15019;Q14141;Q16181 (complex)
chain 1: T2 chain 1
chain 2: T2 chain 2
chain 3: T2 chain 3
[2]
  binding: no binding
